Patent US20250223358A1
Where a chain is given by its changes, count along the chain named. Results are given in words; binding and its absence hold for the method and conditions named. Some binding calls cover weakened binding; strength is not graded here.

The chains behind the UniProt entries cited, without tags or fusion partners. Where a name states a change or a piece, a line headed by the entry shows the natural chain unless it says otherwise.
UniProt Q95LI5: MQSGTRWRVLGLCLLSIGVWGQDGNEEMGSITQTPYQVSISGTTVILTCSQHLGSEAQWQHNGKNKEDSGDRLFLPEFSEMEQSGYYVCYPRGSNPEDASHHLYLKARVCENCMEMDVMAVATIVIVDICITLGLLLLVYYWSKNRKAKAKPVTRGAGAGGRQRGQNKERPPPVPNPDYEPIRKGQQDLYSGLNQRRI
UniProt Q95LI8: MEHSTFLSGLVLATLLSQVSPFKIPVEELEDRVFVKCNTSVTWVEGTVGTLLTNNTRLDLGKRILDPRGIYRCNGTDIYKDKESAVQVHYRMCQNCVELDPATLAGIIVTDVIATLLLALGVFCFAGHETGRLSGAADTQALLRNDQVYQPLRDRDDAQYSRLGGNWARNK
UniProt Q95LI7: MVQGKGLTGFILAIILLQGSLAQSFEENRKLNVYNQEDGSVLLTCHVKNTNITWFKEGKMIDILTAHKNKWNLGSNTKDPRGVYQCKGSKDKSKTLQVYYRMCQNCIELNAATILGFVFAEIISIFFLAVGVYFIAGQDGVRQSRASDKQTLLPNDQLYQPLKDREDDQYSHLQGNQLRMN
UniProt P07766: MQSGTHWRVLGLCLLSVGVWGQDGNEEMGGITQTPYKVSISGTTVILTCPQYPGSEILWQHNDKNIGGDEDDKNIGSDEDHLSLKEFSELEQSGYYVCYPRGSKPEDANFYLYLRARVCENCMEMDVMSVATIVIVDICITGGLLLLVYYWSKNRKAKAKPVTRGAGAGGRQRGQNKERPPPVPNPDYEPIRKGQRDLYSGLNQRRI
UniProt P04234: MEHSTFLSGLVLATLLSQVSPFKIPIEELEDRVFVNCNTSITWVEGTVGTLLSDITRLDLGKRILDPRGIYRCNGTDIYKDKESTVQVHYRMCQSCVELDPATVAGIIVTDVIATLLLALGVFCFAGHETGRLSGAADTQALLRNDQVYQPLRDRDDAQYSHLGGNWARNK
UniProt P09693: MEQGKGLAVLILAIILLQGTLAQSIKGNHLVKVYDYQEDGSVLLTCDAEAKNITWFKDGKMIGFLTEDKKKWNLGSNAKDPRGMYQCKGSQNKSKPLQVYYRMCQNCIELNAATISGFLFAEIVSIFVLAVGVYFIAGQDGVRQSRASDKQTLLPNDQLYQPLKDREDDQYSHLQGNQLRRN

B1: hu147E2-L3H4 (antibody, V domains shown)
VH: EVQLVQSGAEVKKPGSSVKVSCKASGYTFTSYWMHWVRQAPGQGLEWIGNINPSNGATNYNEKFKSRATLTVDKSTSTAYMELSSLRSEDTAVYYCARDRSSQYYFDYWGQGTTVTVSS
VL: DIQMTQSPSSLSASVGDRVTITCKSSQSLLNSRSRKNYLAWYQQKPGKAPKLLIYWASTRESGVPSRFSGSGSGTDFTLTISSLQPEDFATYYCTQSYTLRTFGGGTKVEIK
B2: hu147E2-L2H4 (antibody, V domains shown)
VH: B1 VH
VL: DIVMTQSPDSLAVSLGERATINCKSSQSLLNSRSRKNYLAWYQQKPGQSPKLLIYWASTRESGVPDRFSGSGSGTDFTLTISSLQAEDVAVYYCTQSYTLRTFGGGTKVEIK
B3: hu147E2-L2H2 (antibody, V domains shown)
VH: B1 VH with I48M, A68V, L70I, V72A
VL: B2 VL
B4: hu147E2-L1H4 (antibody, V domains shown)
VH: B1 VH
VL: B2 VL with S49P
B5: hu147E2-L3H2 (antibody, V domains shown)
VH: B1 VH with I48M, A68V, L70I, V72A
VL: B1 VL
B6: hu147E2-L1H2 (antibody, V domains shown)
VH: B1 VH with I48M, A68V, L70I, V72A
VL: B2 VL with S49P
B7: ch126A11A4 (antibody, V domains shown)
VH: QVQLQQPGTELVKPGASVKLSCKASGYTFTSYWMHWVKQRPEQGLEWIGNINPSNGDTNYNEKFKSKATLTVDKASNTAYMQLSSLTSEDSAVYYCGRDRSSQYYFDYWGQGTTLTVSS
VL: DIVMSQSPSSLAVSAGEKVTMSCKSSQSLLNSRTRKNYLAWYQQKPGQSPKLLIYWASTRESGVPDRFTGSGSGTDFTLTISSVQAEDLAVYFCKQSFILRTFGGGTKLEIK
B8: ch147C6F3 (antibody, V domains shown)
VH: B7 VH with T30D, E42G, I51L, D57E, T58I, S66H, A75S, N77S, G97S
VL: B7 VL with M21L, P46S, I54M, S82T, S83N, F93Y, F98Y
B9: ch147E11E2 (antibody, V domains shown)
VH: B7 VH with A16T, E42G, D57A, A75S, N77S, G97A
VL: B7 VL with T34S, F93Y, K95T, F98Y, I99T
B10: 16-F2-C11-D9 (antibody, V domains shown)
VH: EVQLQQSGPELVKPGASVKMSCKASGYTFTDFNIHWVKQSLGKSLEWIGYINPNDGGSTYNQKFKGKATLTINKSSSSAYMELRSLTSEDSAVYYCAIPFLDSWGQGTSVTVSS
VL: TLMMTQSPSSMYASLGERVTITCKASQDINSYLRWYQQKPGKSPKTLIYGASSLVDGVPSRFSGRGSGQDYSLTISSLEYEDMGIYYCLQYDEVPLTFGAGTKLELK
B11: 40-C12-C10-E9 (antibody, V domains shown)
VH: EVQLQLSGPELVKPGASVKMSCKASGYTFSSYVIHWVKQKPGQGLEWIGYINPYNDVIKYNEKFKGKATLTSDKSSSTAYMELSSLTSEDSAVYYCARDSYYSYDGFAYWGQGTLVTVSA
VL: QIVLTQSPAIMSASPGEKVTMTCSASSSVSYMHWYQQKSGTSPKRWIYDTSKLASGVPARFSGSGSGTSYSLTISSMEAEDAATYYCQQWSSNPPTFGGGTKVEIK

What follows are binders tested against cynomolgus CD3 (cynomolgus (Macaca fascicularis)) (UniProt Q95LI5+Q95LI8+Q95LI7) (assay: FACS on 293T-cynoCD3mix cells).

Row | binding | Binder
1 | binds | B1
2 | binds | B2
3 | binds | B3
4 | binds | B4
5 | binds | B5
6 | binds | B6
7 | binds | B7
8 | binds | B8
9 | binds | B9

These binders were tested against T1, human CD3 (human) (UniProt P07766+P04234+P09693) (assay: FACS on Jurkat cells).

Row | binding | Binder
10 | binds | B1
11 | binds | B5
12 | binds | B7
13 | binds | B8
14 | binds | B9

Each binder was assayed against T1, human CD3 (human) (assay: FACS on 293T-hCD3mix cells).

Row | binding | Binder
15 | binds | B10
16 | binds | B11
